Values from PubChem BioAssay AID1259254 (NCATS, 2017).

Test: 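Gene knock-downs that lead to re-replication, shown by excess G2 DNA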 (primary screen)
Cell system: human HCT116 colorectal cancer cells
Reagent: single siRNA against human genes
Timing: 3 days
Read-out: 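Nuclei stained with Hoechst and imaged; cell-cycle phase assigned by DNA content; G2 share scaled per plate, non-targeting siRNA 0%, GMNN siRNA 100%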
Reading the numbers: G2 robust z-score and G2 cells, % of GMNN control: higher = more G2 cells, more excess DNA replication; raw share of cells in G2: higher = larger share of cells with G2 DNA content
Hit rule: 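Active siRNAs have a G2 robust z of 5 or more median absolute deviations over the median, which in these data means about 38% or higher of GMNN control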
The deposit covers about 59,000 reagents; shown is a part drawn at random. In the full data, about 1,550 (2.6%) are marked active. 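G2 share is only a proxy for re-replication; each gene was hit by three separate siRNAs, and active genes were retested.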 Raw values are not corrected between plates. The numbers tell different reagents against one gene apart. Not given: the amount of reagent.

gene knocked down | reagent | G2 robust z-score | G2 cells, % of GMNN control | raw share of cells in G2 (%) | Call
RGS7BP (regulator of G protein signaling 7 binding protein) | 1 | 0.456 | 6.18 | 6.06 | inactive
RGS7BP (regulator of G protein signaling 7 binding protein) | 2 | -0.0154 | 2.86 | 4.65 | inactive
RGS7BP (regulator of G protein signaling 7 binding protein) | 3 | -0.565 | -1.01 | 4.37 | inactive
RASL10B (RAS like family 10 member B) | 1 | -0.456 | -0.239 | 5.56 | inactive
RASL10B (RAS like family 10 member B) | 2 | -0.313 | 0.765 | 5.29 | inactive
RASL10B (RAS like family 10 member B) | 3 | -0.894 | -3.32 | 3.23 | inactive
TGFB2 (transforming growth factor beta 2) | 1 | 7.28 | 54.2 | 29.2 | active
TGFB2 (transforming growth factor beta 2) | 2 | 0.678 | 7.73 | 6.96 | inactive
TGFB2 (transforming growth factor beta 2) | 3 | 0.345 | 5.4 | 5.26 | inactive
RUNX3 (RUNX family transcription factor 3) | 1 | 4.77 | 36.5 | 17.2 | inactive
RUNX3 (RUNX family transcription factor 3) | 2 | 1.33 | 12.3 | 9.47 | inactive
RUNX3 (RUNX family transcription factor 3) | 3 | 3.95 | 30.7 | 15.4 | inactive
COX19 (cytochrome c oxidase assembly factor COX19) | 1 | -0.494 | -0.509 | 3.87 | inactive
COX19 (cytochrome c oxidase assembly factor COX19) | 2 | 0.589 | 7.11 | 5.23 | inactive
COX19 (cytochrome c oxidase assembly factor COX19) | 3 | -0.321 | 0.711 | 3.15 | inactive
WNT1 (Wnt family member 1) | 1 | 2.22 | 18.6 | 10.6 | inactive
WNT1 (Wnt family member 1) | 2 | -1.02 | -4.22 | 2.69 | inactive
WNT1 (Wnt family member 1) | 3 | 1.96 | 16.8 | 12.7 | inactive
MCTP2 (multiple C2 and transmembrane domain containing 2) | 1 | 0.332 | 5.3 | 4.83 | inactive
MCTP2 (multiple C2 and transmembrane domain containing 2) | 2 | 2.41 | 19.9 | 12.2 | inactive
MCTP2 (multiple C2 and transmembrane domain containing 2) | 3 | -0.849 | -3.01 | 2.89 | inactive
NDUFB1 (NADH:ubiquinone oxidoreductase subunit B1) | 1 | -1.35 | -6.56 | 1.03 | inactive
NDUFB1 (NADH:ubiquinone oxidoreductase subunit B1) | 2 | 0.402 | 5.8 | 7.77 | inactive
NDUFB1 (NADH:ubiquinone oxidoreductase subunit B1) | 3 | 2.64 | 21.5 | 13.7 | inactive
COQ10A (coenzyme Q10A) | 1 | -0.986 | -3.97 | 2.4 | inactive
COQ10A (coenzyme Q10A) | 2 | 0.386 | 5.68 | 4.78 | inactive
COQ10A (coenzyme Q10A) | 3 | 3.82 | 29.8 | 12.4 | inactive
GATC (glutamyl-tRNA amidotransferase subunit C) | 1 | 0.465 | 6.24 | 5.92 | inactive
GATC (glutamyl-tRNA amidotransferase subunit C) | 2 | 1.79 | 15.5 | 9.06 | inactive
GATC (glutamyl-tRNA amidotransferase subunit C) | 3 | 0.8 | 8.6 | 5.88 | inactive
ACOX3 (acyl-CoA oxidase 3, pristanoyl) | 1 | 1 | 10 | 8.29 | inactive
ACOX3 (acyl-CoA oxidase 3, pristanoyl) | 2 | 0.985 | 9.9 | 8.74 | inactive
ACOX3 (acyl-CoA oxidase 3, pristanoyl) | 3 | -0.828 | -2.85 | 3.24 | inactive
EFNA3 (ephrin A3) | 1 | -0.739 | -2.23 | 4.26 | inactive
EFNA3 (ephrin A3) | 2 | -0.777 | -2.5 | 3.17 | inactive
EFNA3 (ephrin A3) | 3 | 1.58 | 14.1 | 9.05 | inactive
OMP (olfactory marker protein) | 1 | 0.744 | 8.2 | 6.32 | inactive
OMP (olfactory marker protein) | 2 | -1.01 | -4.17 | 3.2 | inactive
OMP (olfactory marker protein) | 3 | 0.257 | 4.78 | 6.11 | inactive
ASXL3 (ASXL transcriptional regulator 3) | 1 | -0.477 | -0.388 | 4.28 | inactive
ASXL3 (ASXL transcriptional regulator 3) | 2 | -0.732 | -2.18 | 3.35 | inactive
ASXL3 (ASXL transcriptional regulator 3) | 3 | -1.11 | -4.86 | 1.05 | inactive
ZNF821 (zinc finger protein 821) | 1 | -1.29 | -6.12 | 2.17 | inactive
ZNF821 (zinc finger protein 821) | 2 | -0.103 | 2.24 | 5.07 | inactive
ZNF821 (zinc finger protein 821) | 3 | -0.786 | -2.56 | 2.32 | inactive
ZBTB42 (zinc finger and BTB domain containing 42) | 1 | 0.345 | 5.39 | 5.78 | inactive
ZBTB42 (zinc finger and BTB domain containing 42) | 2 | 1.77 | 15.4 | 9.86 | inactive
ZBTB42 (zinc finger and BTB domain containing 42) | 3 | -0.961 | -3.8 | 2.08 | inactive

Reagents listed above with an active call:
gene knocked down | reagent | G2 robust z-score | G2 cells, % of GMNN control | raw share of cells in G2 (%) | Call
TGFB2 (transforming growth factor beta 2) | 1 | 7.28 | 54.2 | 29.2 | active
